This note sets out measurements from the supplement of paper PMC7666118.

Protein sequences, listed by entry. Tags and fused reporters are not part of them. Lines headed by an entry give the natural chain unless they say otherwise; changes in a name come on top.
UniProt Q9UBL0: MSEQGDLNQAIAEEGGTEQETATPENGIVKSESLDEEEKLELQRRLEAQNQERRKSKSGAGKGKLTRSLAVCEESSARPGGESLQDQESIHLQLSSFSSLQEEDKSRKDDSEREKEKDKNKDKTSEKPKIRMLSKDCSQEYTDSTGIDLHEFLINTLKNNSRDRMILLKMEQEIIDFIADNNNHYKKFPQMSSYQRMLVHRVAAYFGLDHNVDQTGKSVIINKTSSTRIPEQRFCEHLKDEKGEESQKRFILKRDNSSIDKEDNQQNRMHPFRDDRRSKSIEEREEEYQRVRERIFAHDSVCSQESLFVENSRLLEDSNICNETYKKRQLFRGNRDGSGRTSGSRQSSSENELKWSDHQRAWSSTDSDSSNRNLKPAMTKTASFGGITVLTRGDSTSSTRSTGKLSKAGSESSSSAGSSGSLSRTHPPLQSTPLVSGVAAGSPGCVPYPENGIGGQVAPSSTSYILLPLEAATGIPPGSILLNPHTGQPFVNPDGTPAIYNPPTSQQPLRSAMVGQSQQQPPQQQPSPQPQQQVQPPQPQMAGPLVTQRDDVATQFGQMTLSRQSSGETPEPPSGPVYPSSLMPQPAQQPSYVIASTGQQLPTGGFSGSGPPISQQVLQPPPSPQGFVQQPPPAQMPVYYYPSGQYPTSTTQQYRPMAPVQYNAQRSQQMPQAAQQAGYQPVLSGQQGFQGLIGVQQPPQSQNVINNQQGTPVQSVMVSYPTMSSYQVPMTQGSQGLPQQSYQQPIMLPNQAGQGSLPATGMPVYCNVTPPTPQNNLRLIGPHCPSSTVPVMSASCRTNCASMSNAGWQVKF
UniProt Q92934: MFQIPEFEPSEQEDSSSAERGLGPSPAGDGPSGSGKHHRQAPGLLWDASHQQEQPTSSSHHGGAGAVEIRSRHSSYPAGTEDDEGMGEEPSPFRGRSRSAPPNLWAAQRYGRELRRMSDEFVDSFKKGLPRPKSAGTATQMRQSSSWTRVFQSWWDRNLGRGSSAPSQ
UniProt Q92994: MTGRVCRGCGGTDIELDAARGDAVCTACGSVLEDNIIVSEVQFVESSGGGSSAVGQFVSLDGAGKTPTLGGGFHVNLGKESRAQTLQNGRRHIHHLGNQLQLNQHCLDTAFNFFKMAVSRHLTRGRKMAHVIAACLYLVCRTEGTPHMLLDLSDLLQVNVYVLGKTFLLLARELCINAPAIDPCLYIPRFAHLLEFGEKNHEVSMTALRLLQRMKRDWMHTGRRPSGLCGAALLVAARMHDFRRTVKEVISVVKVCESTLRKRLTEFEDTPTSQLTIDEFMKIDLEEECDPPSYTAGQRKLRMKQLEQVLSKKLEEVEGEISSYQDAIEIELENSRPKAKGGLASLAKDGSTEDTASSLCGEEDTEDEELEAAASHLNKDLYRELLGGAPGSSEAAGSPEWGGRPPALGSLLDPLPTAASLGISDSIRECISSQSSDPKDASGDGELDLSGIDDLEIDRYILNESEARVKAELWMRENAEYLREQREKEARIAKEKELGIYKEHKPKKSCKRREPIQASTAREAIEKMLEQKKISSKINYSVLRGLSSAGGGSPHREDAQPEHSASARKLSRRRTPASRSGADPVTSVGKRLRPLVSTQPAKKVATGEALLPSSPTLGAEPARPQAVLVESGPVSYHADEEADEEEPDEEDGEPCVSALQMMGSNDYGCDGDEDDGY
UniProt Q9Y6E2: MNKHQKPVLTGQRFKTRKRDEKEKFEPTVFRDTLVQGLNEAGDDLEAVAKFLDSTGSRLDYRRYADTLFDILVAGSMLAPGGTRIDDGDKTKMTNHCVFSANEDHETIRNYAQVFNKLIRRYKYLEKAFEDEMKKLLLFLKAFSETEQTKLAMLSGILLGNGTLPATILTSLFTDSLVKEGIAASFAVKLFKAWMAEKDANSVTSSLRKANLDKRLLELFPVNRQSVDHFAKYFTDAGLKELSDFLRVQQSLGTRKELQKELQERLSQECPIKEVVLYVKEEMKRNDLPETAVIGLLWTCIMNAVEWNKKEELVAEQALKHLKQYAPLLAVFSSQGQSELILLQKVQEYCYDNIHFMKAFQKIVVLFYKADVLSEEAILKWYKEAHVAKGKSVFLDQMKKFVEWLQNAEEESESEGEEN
UniProt O43683: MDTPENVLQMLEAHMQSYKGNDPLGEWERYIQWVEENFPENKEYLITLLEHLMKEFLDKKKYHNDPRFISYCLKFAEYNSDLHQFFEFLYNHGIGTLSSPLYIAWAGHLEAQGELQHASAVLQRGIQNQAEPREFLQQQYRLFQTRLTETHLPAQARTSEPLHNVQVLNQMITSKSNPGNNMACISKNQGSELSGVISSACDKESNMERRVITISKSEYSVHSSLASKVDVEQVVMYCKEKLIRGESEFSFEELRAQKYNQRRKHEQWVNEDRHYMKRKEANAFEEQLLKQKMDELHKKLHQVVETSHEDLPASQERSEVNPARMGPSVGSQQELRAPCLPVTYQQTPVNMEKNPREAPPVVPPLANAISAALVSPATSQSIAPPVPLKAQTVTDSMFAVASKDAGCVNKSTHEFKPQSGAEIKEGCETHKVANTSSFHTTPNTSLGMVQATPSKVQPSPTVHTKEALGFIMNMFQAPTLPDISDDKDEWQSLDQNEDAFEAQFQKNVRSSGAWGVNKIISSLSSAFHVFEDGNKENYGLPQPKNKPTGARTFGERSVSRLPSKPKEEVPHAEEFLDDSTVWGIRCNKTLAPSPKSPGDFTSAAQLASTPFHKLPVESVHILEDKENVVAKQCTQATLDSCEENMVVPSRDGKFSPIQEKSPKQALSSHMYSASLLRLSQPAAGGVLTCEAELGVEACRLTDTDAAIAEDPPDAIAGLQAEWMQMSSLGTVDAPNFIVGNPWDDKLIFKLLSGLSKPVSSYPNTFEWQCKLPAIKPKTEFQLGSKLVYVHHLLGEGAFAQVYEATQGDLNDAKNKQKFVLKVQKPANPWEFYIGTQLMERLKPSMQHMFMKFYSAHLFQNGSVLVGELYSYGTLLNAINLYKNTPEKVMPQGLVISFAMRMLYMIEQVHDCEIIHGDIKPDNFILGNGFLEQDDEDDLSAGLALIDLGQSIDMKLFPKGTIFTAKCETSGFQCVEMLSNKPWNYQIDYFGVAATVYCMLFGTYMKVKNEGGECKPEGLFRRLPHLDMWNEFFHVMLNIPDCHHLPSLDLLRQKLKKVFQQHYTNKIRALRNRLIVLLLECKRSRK
UniProt P04632: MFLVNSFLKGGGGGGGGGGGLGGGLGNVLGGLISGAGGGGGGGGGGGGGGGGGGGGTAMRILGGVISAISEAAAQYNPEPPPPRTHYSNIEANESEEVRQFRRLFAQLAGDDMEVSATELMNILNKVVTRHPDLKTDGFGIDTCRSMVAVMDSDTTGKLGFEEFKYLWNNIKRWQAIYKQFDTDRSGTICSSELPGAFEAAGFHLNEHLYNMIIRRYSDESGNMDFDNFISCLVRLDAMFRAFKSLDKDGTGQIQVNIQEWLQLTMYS
UniProt Q9Y294, whole entry: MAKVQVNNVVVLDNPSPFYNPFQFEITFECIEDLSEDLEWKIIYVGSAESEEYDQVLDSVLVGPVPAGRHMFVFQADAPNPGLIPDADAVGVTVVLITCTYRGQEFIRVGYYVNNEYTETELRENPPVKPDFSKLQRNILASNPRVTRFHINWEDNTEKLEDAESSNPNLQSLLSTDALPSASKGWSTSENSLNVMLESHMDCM
UniProt Q676U5: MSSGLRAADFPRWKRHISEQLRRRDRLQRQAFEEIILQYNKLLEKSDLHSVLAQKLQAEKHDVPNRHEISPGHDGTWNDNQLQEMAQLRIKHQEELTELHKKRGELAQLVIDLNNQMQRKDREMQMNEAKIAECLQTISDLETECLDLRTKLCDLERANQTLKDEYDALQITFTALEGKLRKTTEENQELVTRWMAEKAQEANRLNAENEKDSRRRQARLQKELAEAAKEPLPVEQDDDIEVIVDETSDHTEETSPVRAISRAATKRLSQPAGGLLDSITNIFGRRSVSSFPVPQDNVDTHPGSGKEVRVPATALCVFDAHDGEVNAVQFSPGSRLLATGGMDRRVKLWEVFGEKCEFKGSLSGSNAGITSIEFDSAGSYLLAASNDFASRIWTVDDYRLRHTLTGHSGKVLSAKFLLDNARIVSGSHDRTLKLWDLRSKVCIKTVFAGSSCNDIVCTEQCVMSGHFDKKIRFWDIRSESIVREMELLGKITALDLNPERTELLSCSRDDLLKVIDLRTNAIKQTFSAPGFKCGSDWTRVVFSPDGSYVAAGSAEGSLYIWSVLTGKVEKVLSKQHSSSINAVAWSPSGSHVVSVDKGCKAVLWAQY
UniProt O43684, whole entry: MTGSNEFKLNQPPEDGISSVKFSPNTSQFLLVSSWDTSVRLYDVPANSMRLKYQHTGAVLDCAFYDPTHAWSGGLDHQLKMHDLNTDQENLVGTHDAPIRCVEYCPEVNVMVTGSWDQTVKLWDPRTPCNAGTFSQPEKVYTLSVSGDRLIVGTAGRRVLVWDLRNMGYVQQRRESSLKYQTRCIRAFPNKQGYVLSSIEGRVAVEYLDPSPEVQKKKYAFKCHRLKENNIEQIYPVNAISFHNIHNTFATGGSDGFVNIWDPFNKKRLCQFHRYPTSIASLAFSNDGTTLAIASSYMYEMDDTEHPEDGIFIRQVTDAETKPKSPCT
UniProt Q86X55: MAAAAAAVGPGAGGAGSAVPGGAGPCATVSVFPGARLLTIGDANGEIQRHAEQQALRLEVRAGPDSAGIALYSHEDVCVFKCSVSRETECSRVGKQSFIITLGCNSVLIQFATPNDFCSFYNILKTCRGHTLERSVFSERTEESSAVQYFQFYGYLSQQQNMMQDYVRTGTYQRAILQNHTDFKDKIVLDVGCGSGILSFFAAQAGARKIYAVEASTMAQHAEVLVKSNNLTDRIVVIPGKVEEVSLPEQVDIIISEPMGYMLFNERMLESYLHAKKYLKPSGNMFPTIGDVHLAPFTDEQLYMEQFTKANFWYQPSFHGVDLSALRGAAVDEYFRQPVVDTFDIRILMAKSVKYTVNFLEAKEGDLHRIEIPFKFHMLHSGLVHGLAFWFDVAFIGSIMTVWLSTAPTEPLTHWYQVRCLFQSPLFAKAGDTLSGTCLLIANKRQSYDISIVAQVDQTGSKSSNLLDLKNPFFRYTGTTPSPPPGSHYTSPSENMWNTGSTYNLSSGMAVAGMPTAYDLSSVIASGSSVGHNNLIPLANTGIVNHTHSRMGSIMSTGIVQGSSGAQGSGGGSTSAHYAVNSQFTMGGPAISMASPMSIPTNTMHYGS
UniProt Q8WUR7: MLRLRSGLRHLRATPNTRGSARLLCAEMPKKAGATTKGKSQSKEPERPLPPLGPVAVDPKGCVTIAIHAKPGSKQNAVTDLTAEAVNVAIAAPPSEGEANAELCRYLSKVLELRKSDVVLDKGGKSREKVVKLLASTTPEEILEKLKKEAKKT
UniProt Q8N999, whole entry: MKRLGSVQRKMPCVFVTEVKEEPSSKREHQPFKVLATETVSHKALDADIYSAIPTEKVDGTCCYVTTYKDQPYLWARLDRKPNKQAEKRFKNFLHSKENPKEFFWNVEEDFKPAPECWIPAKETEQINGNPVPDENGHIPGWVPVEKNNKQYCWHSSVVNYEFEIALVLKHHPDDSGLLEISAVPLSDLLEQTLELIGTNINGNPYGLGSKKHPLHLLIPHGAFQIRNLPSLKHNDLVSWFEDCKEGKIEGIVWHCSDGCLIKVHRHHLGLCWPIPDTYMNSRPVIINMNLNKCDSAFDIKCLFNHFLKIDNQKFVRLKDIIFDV
UniProt Q9BPX5, whole entry: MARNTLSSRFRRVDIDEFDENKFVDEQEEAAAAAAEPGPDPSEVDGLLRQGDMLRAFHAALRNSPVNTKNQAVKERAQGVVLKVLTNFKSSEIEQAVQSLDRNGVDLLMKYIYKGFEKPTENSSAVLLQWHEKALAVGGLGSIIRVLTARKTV
UniProt Q8N5I9: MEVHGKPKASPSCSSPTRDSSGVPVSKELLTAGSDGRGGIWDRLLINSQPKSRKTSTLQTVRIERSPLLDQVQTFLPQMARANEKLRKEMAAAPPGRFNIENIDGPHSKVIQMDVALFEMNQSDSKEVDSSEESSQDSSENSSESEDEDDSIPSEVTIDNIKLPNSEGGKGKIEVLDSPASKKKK
UniProt Q8N8R7: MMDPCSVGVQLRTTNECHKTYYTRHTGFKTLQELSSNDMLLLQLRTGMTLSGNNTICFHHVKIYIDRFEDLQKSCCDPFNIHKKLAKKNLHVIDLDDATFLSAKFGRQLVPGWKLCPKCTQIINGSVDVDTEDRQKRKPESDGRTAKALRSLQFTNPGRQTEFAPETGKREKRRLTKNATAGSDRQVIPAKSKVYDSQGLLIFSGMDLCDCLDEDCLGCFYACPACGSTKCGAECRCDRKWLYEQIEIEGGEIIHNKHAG
UniProt P35226: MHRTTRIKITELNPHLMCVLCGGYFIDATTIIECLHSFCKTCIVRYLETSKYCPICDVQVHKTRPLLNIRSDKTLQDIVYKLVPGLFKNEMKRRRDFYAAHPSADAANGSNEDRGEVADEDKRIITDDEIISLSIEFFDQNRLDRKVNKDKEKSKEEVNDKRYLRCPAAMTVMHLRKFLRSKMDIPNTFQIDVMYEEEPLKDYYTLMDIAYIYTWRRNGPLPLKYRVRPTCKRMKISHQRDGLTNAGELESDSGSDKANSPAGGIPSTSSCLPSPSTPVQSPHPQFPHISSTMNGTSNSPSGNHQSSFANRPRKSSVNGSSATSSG

This is one part of the list.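 Rule for the calls: active = dose-dependent thermal stabilisation significant by F-test of dose-response against flat model at 10% FDR; inactive = not significant.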

Compound in the experiment: Nc1nc2c(ncn2[C@@H]2O[C@H](COP(=O)(O)OP(=O)(O)OP(=O)(O)O)[C@@H](O)[C@H]2O)c(=O)[nH]1
In words: dose-dependent thermal stabilisation call (2D-TPP, DLPTP, 10% FDR) (binary (1 = stabilised)); higher = stabilised by the compound. As to conditions: system: Jurkat gel-filtered lysate; concentration range 1-500 µM.
Consider ARPP21 (UniProt Q9UBL0), for which the “dose-dependent thermal stabilisation call” value was inactive: 0.
The figure for ARHGAP35 (UniProt Q9NRY4) is inactive: 0.
In the case of ASH2L (UniProt Q9UBL3) it was inactive: 0; in that of BBX (UniProt Q8WY36), inactive: 0.
The figure for BAD (UniProt Q92934) is inactive: 0.
For the target BRD2 (UniProt P25440), the “dose-dependent thermal stabilisation call” value is inactive: 0.
In the case of ATPAF1 (UniProt Q5TC12) it was inactive: 0; in that of BMP2K (UniProt Q9NSY1), inactive: 0.
The figure for BRF1 (UniProt Q92994) is inactive: 0; for BTF3 (UniProt P20290) it is inactive: 0; for C18orf8 (UniProt Q96DM3) it is active: 1.
The figure for C12orf43 (UniProt Q96C57) is inactive: 0; for BZW2 (UniProt Q9Y6E2) it is inactive: 0; for BUB1 (UniProt O43683) it is inactive: 0.
For CAPNS1 (UniProt P04632), the “dose-dependent thermal stabilisation call” value is inactive: 0.
The figure for ASF1A (UniProt Q9Y294) is inactive: 0; for ATG13 (UniProt O75143) it is inactive: 0; for CA8 (UniProt P35219) it is inactive: 0.
The figure for C6orf203 (UniProt Q9P0P8) is inactive: 0; for ATG16L1 (UniProt Q676U5) it is inactive: 0.
The figure for BDP1 (UniProt A6H8Y1) is inactive: 0; for BTF3L4 (UniProt Q96K17) it is inactive: 0; for BUB3 (UniProt O43684) it is inactive: 0.
Turning to CARM1 (UniProt Q86X55), the “dose-dependent thermal stabilisation call” value is inactive: 0.
As to ATG2B (UniProt Q96BY7), the “dose-dependent thermal stabilisation call” value was inactive: 0.
The figure for C15orf40 (UniProt Q8WUR7) is inactive: 0; for C12orf29 (UniProt Q8N999) it is inactive: 0; for ARPC5L (UniProt Q9BPX5) it is inactive: 0.
For the target ASCC1 (UniProt Q8N9N2), the “dose-dependent thermal stabilisation call” value was inactive: 0.
As to BUD13 (UniProt Q9BRD0), the “dose-dependent thermal stabilisation call” value is inactive: 0.
The figure for C12orf45 (UniProt Q8N5I9) is inactive: 0; for ATN1 (UniProt P54259) it is inactive: 0; for BIN1 (UniProt O00499) it is inactive: 0.
In the case of ARL14EP (UniProt Q8N8R7) it was inactive: 0; in that of BMI1 (UniProt P35226), inactive: 0.
The figure for BICD2 (UniProt Q8TD16) is inactive: 0.
